# At least one compound was matched to its structure with a doubt left.
# System: tPA-induced hemorrhage in rat embolic focal ischemia
# Assay: tPA-induced hemorrhage in rat embolic (clot-based) focal ischemia, hemoglobin spectrophotometry
# Format: in vivo
# Details: tPA 10 mg/kg iv 6 hrs post-ischemia plus two doses of 50 mg/kg ip BB-94 vs tPA alone; 24 hrs, perfused brain
structure (smiles),measurement,value
"CNC(=O)[C@H](Cc1ccccc1)NC(=O)[C@H](CC(C)C)[C@H](CSc1cccs1)C(=O)NO [BB-94, batimastat]",tPA-induced hemorrhage volumes,significantly decreased

# From patent US20060263351A1, “Methods and compositions for protection against thrombolysis associated reperfusion injury” (The General Hospital Corporation, priority 2002, published 2006)
